Experimental data from publication PMC7463853.
Results are given in words; binding and its absence hold for the method and conditions named. In cells and extracts the contact can be indirect. Some binding calls cover weakened binding; strength is not graded here. For some of these results: Sequences can lack the tags named with a protein. Values belong to the binder of their own block, whether it stands above or below them.

How the values were obtained:
[1] = target: T1, GFP-tagged DCLK1 (UniProt O15075); experiment: co-IP; HEK293T cells overexpressing MACC1-RFP and DCLK1-GFP; IP-lysis buffer with protease inhibitor; 2 µg of the respective antibody overnight at 4 °C, G-agarose beads 4 h at 4 °C; each protein in turn precipitated
T1 sequence: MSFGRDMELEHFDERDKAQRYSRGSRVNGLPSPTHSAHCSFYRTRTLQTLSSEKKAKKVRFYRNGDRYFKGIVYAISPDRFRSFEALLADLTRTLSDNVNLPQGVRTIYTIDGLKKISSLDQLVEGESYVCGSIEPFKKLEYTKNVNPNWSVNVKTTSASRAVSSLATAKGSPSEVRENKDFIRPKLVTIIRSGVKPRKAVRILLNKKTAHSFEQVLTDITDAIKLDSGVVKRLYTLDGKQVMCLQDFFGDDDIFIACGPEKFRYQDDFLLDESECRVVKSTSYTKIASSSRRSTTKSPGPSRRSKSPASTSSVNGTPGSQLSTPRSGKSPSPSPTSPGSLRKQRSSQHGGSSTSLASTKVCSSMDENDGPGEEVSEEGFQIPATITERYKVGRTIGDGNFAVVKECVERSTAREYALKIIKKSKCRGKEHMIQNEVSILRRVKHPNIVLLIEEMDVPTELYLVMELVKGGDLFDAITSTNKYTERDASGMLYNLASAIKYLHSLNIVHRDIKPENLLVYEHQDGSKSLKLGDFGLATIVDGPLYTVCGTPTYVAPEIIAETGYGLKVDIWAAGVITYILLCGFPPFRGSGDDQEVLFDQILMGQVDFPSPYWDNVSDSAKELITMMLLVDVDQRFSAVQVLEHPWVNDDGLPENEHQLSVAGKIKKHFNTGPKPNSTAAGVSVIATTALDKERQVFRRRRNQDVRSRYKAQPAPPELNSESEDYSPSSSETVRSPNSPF

[2] = target: T2, RFP-tagged MACC1 (Metastasis-Associated in Colon Cancer 1) (UniProt Q6ZN28); experiment: FRET or BRET; GFP- and RFP-tagged proteins overexpressed in HEK293T cells by lentiviral transfer; cells fixed with 4% paraformaldehyde; FRET efficacy scaled 0 to 1 (ImageJ plugin FRETTY)
T2 sequence: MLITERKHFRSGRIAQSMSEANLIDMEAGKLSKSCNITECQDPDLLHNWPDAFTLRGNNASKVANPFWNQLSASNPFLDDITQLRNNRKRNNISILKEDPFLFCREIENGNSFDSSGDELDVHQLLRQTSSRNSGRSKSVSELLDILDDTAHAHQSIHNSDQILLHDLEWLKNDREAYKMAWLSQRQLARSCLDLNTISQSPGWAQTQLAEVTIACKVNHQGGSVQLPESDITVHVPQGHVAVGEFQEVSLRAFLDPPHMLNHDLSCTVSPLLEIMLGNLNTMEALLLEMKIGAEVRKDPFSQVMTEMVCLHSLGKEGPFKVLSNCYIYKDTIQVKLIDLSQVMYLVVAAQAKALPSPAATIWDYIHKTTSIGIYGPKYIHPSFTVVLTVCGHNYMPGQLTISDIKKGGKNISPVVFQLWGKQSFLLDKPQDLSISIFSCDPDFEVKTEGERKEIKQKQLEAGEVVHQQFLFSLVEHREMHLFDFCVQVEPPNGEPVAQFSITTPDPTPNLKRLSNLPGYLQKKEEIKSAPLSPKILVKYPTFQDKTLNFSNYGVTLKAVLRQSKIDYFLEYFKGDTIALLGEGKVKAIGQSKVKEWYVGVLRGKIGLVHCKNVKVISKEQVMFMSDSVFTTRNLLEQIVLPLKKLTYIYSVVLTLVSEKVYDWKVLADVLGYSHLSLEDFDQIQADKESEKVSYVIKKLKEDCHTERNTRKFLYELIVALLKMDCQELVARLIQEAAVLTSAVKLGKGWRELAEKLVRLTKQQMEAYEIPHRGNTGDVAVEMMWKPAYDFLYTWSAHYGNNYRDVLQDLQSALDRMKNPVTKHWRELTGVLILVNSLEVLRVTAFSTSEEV

[3] = target: T2, RFP-tagged MACC1 (Metastasis-Associated in Colon Cancer 1); experiment: co-IP; HEK293T cells overexpressing MACC1-RFP and DCLK1-GFP; IP-lysis buffer with protease inhibitor; 2 µg of the respective antibody overnight at 4 °C, G-agarose beads 4 h at 4 °C; each protein in turn precipitated
[4] = target: T3, MACC1, ectopically overexpressed in a CRC cell line (UniProt Q6ZN28); experiment: co-IP; lysate of a CRC cell line with ectopic MACC1 overexpression; 2 µg of the respective antibody overnight at 4 °C, G-agarose beads 4 h at 4 °C
T3 sequence: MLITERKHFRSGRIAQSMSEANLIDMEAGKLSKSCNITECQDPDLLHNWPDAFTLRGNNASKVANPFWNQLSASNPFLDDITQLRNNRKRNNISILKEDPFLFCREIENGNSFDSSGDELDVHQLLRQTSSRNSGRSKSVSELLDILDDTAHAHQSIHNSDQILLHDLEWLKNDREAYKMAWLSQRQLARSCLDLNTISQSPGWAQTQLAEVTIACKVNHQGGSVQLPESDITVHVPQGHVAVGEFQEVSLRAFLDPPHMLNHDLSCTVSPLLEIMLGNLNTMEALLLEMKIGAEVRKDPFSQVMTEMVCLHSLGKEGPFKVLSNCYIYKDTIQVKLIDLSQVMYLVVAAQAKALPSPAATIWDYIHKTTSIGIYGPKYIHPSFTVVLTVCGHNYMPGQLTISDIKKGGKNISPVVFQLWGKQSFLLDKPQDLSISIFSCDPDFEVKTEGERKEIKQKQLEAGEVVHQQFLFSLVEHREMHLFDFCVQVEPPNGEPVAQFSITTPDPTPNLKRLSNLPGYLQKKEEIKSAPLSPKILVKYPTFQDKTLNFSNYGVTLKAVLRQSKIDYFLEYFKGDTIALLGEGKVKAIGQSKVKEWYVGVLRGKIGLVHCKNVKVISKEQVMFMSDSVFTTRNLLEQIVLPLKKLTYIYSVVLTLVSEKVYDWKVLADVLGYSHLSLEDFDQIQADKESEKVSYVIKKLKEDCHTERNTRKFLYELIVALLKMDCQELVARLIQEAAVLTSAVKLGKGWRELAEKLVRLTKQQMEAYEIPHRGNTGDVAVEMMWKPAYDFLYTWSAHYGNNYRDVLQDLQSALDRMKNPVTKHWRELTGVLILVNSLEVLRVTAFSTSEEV

binding [1]: binds
B1: RFP-tagged MACC1 (Metastasis-Associated in Colon Cancer 1) (protein, UniProt Q6ZN28 1-852)
chain: MLITERKHFRSGRIAQSMSEANLIDMEAGKLSKSCNITECQDPDLLHNWPDAFTLRGNNASKVANPFWNQLSASNPFLDDITQLRNNRKRNNISILKEDPFLFCREIENGNSFDSSGDELDVHQLLRQTSSRNSGRSKSVSELLDILDDTAHAHQSIHNSDQILLHDLEWLKNDREAYKMAWLSQRQLARSCLDLNTISQSPGWAQTQLAEVTIACKVNHQGGSVQLPESDITVHVPQGHVAVGEFQEVSLRAFLDPPHMLNHDLSCTVSPLLEIMLGNLNTMEALLLEMKIGAEVRKDPFSQVMTEMVCLHSLGKEGPFKVLSNCYIYKDTIQVKLIDLSQVMYLVVAAQAKALPSPAATIWDYIHKTTSIGIYGPKYIHPSFTVVLTVCGHNYMPGQLTISDIKKGGKNISPVVFQLWGKQSFLLDKPQDLSISIFSCDPDFEVKTEGERKEIKQKQLEAGEVVHQQFLFSLVEHREMHLFDFCVQVEPPNGEPVAQFSITTPDPTPNLKRLSNLPGYLQKKEEIKSAPLSPKILVKYPTFQDKTLNFSNYGVTLKAVLRQSKIDYFLEYFKGDTIALLGEGKVKAIGQSKVKEWYVGVLRGKIGLVHCKNVKVISKEQVMFMSDSVFTTRNLLEQIVLPLKKLTYIYSVVLTLVSEKVYDWKVLADVLGYSHLSLEDFDQIQADKESEKVSYVIKKLKEDCHTERNTRKFLYELIVALLKMDCQELVARLIQEAAVLTSAVKLGKGWRELAEKLVRLTKQQMEAYEIPHRGNTGDVAVEMMWKPAYDFLYTWSAHYGNNYRDVLQDLQSALDRMKNPVTKHWRELTGVLILVNSLEVLRVTAFSTSEEV

binding [2]: binds
binding [3]: binds
B2: GFP-tagged DCLK1 (protein, UniProt O15075 1-740)
chain: MSFGRDMELEHFDERDKAQRYSRGSRVNGLPSPTHSAHCSFYRTRTLQTLSSEKKAKKVRFYRNGDRYFKGIVYAISPDRFRSFEALLADLTRTLSDNVNLPQGVRTIYTIDGLKKISSLDQLVEGESYVCGSIEPFKKLEYTKNVNPNWSVNVKTTSASRAVSSLATAKGSPSEVRENKDFIRPKLVTIIRSGVKPRKAVRILLNKKTAHSFEQVLTDITDAIKLDSGVVKRLYTLDGKQVMCLQDFFGDDDIFIACGPEKFRYQDDFLLDESECRVVKSTSYTKIASSSRRSTTKSPGPSRRSKSPASTSSVNGTPGSQLSTPRSGKSPSPSPTSPGSLRKQRSSQHGGSSTSLASTKVCSSMDENDGPGEEVSEEGFQIPATITERYKVGRTIGDGNFAVVKECVERSTAREYALKIIKKSKCRGKEHMIQNEVSILRRVKHPNIVLLIEEMDVPTELYLVMELVKGGDLFDAITSTNKYTERDASGMLYNLASAIKYLHSLNIVHRDIKPENLLVYEHQDGSKSLKLGDFGLATIVDGPLYTVCGTPTYVAPEIIAETGYGLKVDIWAAGVITYILLCGFPPFRGSGDDQEVLFDQILMGQVDFPSPYWDNVSDSAKELITMMLLVDVDQRFSAVQVLEHPWVNDDGLPENEHQLSVAGKIKKHFNTGPKPNSTAAGVSVIATTALDKERQVFRRRRNQDVRSRYKAQPAPPELNSESEDYSPSSSETVRSPNSPF

binding [4]: binds
B3: DCLK1 in a CRC cell line with ectopic MACC1 overexpression (protein, UniProt O15075 1-740)
chain: MSFGRDMELEHFDERDKAQRYSRGSRVNGLPSPTHSAHCSFYRTRTLQTLSSEKKAKKVRFYRNGDRYFKGIVYAISPDRFRSFEALLADLTRTLSDNVNLPQGVRTIYTIDGLKKISSLDQLVEGESYVCGSIEPFKKLEYTKNVNPNWSVNVKTTSASRAVSSLATAKGSPSEVRENKDFIRPKLVTIIRSGVKPRKAVRILLNKKTAHSFEQVLTDITDAIKLDSGVVKRLYTLDGKQVMCLQDFFGDDDIFIACGPEKFRYQDDFLLDESECRVVKSTSYTKIASSSRRSTTKSPGPSRRSKSPASTSSVNGTPGSQLSTPRSGKSPSPSPTSPGSLRKQRSSQHGGSSTSLASTKVCSSMDENDGPGEEVSEEGFQIPATITERYKVGRTIGDGNFAVVKECVERSTAREYALKIIKKSKCRGKEHMIQNEVSILRRVKHPNIVLLIEEMDVPTELYLVMELVKGGDLFDAITSTNKYTERDASGMLYNLASAIKYLHSLNIVHRDIKPENLLVYEHQDGSKSLKLGDFGLATIVDGPLYTVCGTPTYVAPEIIAETGYGLKVDIWAAGVITYILLCGFPPFRGSGDDQEVLFDQILMGQVDFPSPYWDNVSDSAKELITMMLLVDVDQRFSAVQVLEHPWVNDDGLPENEHQLSVAGKIKKHFNTGPKPNSTAAGVSVIATTALDKERQVFRRRRNQDVRSRYKAQPAPPELNSESEDYSPSSSETVRSPNSPF
